Results on 19 compounds are retold here after the supplement of paper PMC12889115.

The subject of this test is Salmonella enterica serovar Typhimurium SL1344. The experiment in a line: bacterial growth OD600 after 18 h with compound and polymyxin B; higher = more bacterial growth (less inhibition). Particulars: 50 µM, Mueller-Hinton broth.

Structures are written as SMILES. The list shows a part of the results. Values are raw readings; no control value is given beside them.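 Primary screen: polymyxin B was added at a level permeabilizing Salmonella outer membranes while sparing inner membranes. DMSO wells, both with and without polymyxin B, established maximum growth. Plate-to-plate variation meant each plate was ranked on its own, and the lowest-OD600 compounds were selected as hits.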

As for `COc1ccccc1CCNC(=O)Cc1ccc(N2CCC(NCc3nonc3C)CC2)cc1`, the “bacterial growth OD600” value (polymyxin B 0.75 µg/mL) came to 0.791. Turning to `C=CCOc1cccc(C(=O)N2CCC(CC3CCCCO3)(C(=O)OCC)CC2)c1` (centres undefined), the “bacterial growth OD600” value (polymyxin B 1 µg/mL) came to 0.885.

With `CC(=O)c1ccc(NC(=O)N2CCc3onc(-c4ccccc4F)c3C2)cc1`, the “bacterial growth OD600” value (polymyxin B 0.75 µg/mL) turned out to be 0.715.

In the case of `Cc1ccccc1CC(C1CCN(C(=O)/C=C/c2cccs2)CC1)N(C)C(=O)C1CCC1` (centres undefined), the “bacterial growth OD600” value (polymyxin B 0.75 µg/mL) came out at 0.001.

For `COc1ccc(CN2CCC(C(Cc3ccccc3F)N(C)Cc3cn(C)nc3C)CC2)c(O)c1` (centres undefined), the “bacterial growth OD600” value (polymyxin B 0.75 µg/mL) worked out at 0.943. Consider `COC(=O)C1CCCCN1C(=O)CCc1nnc(CCc2cccc(OC)c2)o1` (centres undefined), for which the “bacterial growth OD600” value (polymyxin B 1 µg/mL) worked out at 0.911. Regarding `O=C(NC1CC1)C1CCN(C2CCN(C(=O)c3csc4c3CCCC4)CC2)CC1`, the “bacterial growth OD600” value (polymyxin B 1 µg/mL) came to 0.87. Same read-out and setting: the result for `CN(CC1CCCN(CCc2ccccc2F)C1)C(=O)c1ccc2nccnc2c1` (centres undefined) reads 1.05. As to `C=CCC(O)(CC=C)CNC1CCN(c2ccc(NC(=O)c3ccc(C)cc3C)cc2)CC1`, the “bacterial growth OD600” value (polymyxin B 0.75 µg/mL) came to 0.736. For `CN(Cc1cccnc1)Cc1cnc(S(C)(=O)=O)n1CC1CCCO1` (centres undefined), the “bacterial growth OD600” value (polymyxin B 1 µg/mL) was 0.906. On to `COc1ccc(OC)c(CN2CC[C@@H](N3CCN(c4ccccn4)CC3)[C@H](O)C2)c1`, for which, for the setting “polymyxin B 0.75 µg/mL”, the “bacterial growth OD600” value was found to be 0.765. With `CCC(=O)N1CCCC(CCc2ccccc2C)C1` (centres undefined), the “bacterial growth OD600” value (polymyxin B 0.75 µg/mL) was found to be 0.608. Regarding `Cc1oc(-c2cc3c(cc2Cl)OCO3)nc1CN(CCO)Cc1cccs1`, the “bacterial growth OD600” value (polymyxin B 1 µg/mL) is 0.68. Turning to `COc1ccccc1CCN1CCC(CN(C)C(=O)CCc2c(C)noc2C)CC1`, where the note is “polymyxin B 1 µg/mL”, the “bacterial growth OD600” value is 1.08.

For `CCOC(=O)C1(Cc2ccccc2F)CCCN(C(=O)CCN2CCCCC2=O)C1` (centres undefined), the “bacterial growth OD600” value (polymyxin B 1 µg/mL) stood at 0.876.

As to `O=C(NCC1Cc2cc(-c3ccsc3)cc(Cl)c2O1)[C@@H]1C[C@@H]2C=C[C@H]1C2` (some centres undefined), the “bacterial growth OD600” value (polymyxin B 0.75 µg/mL) is 0.209. Consider `CN(C)S(=O)(=O)NC1CC(=O)N(Cc2cccc3ccccc23)C1` (centres undefined), for which the “bacterial growth OD600” value (polymyxin B 1 µg/mL) worked out at 1.17. For the compound `COc1cccc(-c2n[nH]c3c2CN(C(=O)C2=C(C)OCCO2)CC3)c1`, the “bacterial growth OD600” value (polymyxin B 0.75 µg/mL) stood at 0.823. As to `COc1cccc(-c2cc(CC3(O)CCN(Cc4cnn(C)c4)CC3)on2)c1`, the “bacterial growth OD600” value (polymyxin B 0.75 µg/mL) came out at 0.822.
